PubChem BioAssay AID192 (DTP/NCI, 2004)
The list does not hold the whole screen: it gathers tests that were run many times, whatever their T/C, doses with no T/C, and many T/C values between a quarter and a half above the control. Other doses and runs of a compound stand elsewhere. T/C is the treated group as % of the vehicle group. Some doses have a count of surviving animals in place of a T/C: the source holds a T/C of zero for them, seemingly a mark for toxic or unscored doses. Some survivor counts are full or nearly so, which does not show that the dose was tolerated: survival well below the control is almost never listed, so the zero probably covers shortened survival too. Counts of survivors are from the toxicity check (mostly the fifth day) where no day follows; animals may have died later. Schedule codes are those of the source, read here as Q, the interval in days (D) or hours (H), X, the number of doses. Signs of the kind (2×) count equal records among those shown. Some doses were run more than once; the results are listed from low to high. For survival time, the PubChem record calls one and a half times the control and up active, and a quarter to a half above the control has no call in these data; cut-offs in other NCI protocols can differ. Some T/C values carry the count of animals alive at the toxicity check (mostly the fifth day); without a count, all were alive then. Numbered stars: 1 amine (or outer) side, 2 acyl side, 3 side chain; on linkers, the order of the positions; unused ones are H or OH. Bridge positions count the residues as written; N and C are the ends. Square brackets hold non-standard residues; d marks the D form. Peptide text beside a SMILES is read from it. I, II: the chains in the order shown. Actinocin(1to9) = Cc1c2oc3c(C)ccc(C(=O)[*:2])c3nc-2c(C(=O)[*:1])c(N)c1=O; X1 = O=C1CC(C(=O)[*:2])N([*:1])C1; NMeV = CN[CH](C(=O)O)C(C)C; Sar = CNCC(=O)O

Test system: BDF1 mice, B16 melanoma ip, median survival T/C
Test: NCI In Vivo Anticancer Drug Screen. Data for tumor model B16 Melanoma (intraperitoneal) in B6D2F1 (BDF1) mice
Conditions: T/C endpoint: median survival time, higher T/C = longer survival
Outline: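 In this screen, activity was judged from survival or tumor size in treated versus vehicle-treated tumor-bearing mice, reported as T/C.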

[1] = dose: 100.0 mg/kg/injection, schedule: Q01DX009 (ip), vehicle: saline with Tween-80
[2] = dose: 200.0 mg/kg/injection, schedule: Q01DX009 (ip), vehicle: saline with Tween-80
[3] = dose: 100.0 mg/kg/injection, schedule: Q01DX009 (ip), vehicle: Klucel (hydroxypropylcellulose) (HPC)
[4] = dose: 200.0 mg/kg/injection, schedule: Q01DX009 (ip), vehicle: Klucel (hydroxypropylcellulose) (HPC)
[5] = dose: 400.0 mg/kg/injection, schedule: Q01DX009 (ip), vehicle: Klucel (hydroxypropylcellulose) (HPC)
[6] = dose: 12.5 mg/kg/injection, schedule: Q01DX009 (ip), vehicle: Klucel (hydroxypropylcellulose) (HPC)
[7] = dose: 25.0 mg/kg/injection, schedule: Q01DX009 (ip), vehicle: Klucel (hydroxypropylcellulose) (HPC)
[8] = dose: 50.0 mg/kg/injection, schedule: Q01DX009 (ip), vehicle: Klucel (hydroxypropylcellulose) (HPC)

SMILES: CCCC1CC[N-]CC1.CCCC1CC[N-]CC1.[Cl][Pt+2][Cl]
- survivor count [1]: 1 of 6
- survivor count [2]: 1 of 6
- survivor count (dose: 400.0 mg/kg/injection, schedule: Q01DX009 (ip), vehicle: saline with Tween-80): 0 of 6

SMILES: CCCCCCCCCCCCNCCC#N
- survivor count [1]: 9 of 10

SMILES: COc1ccc(NC(=O)Nc2ccc(C)c(C)c2)cc1
- survivor count [3]: 10 of 10
- survivor count [4]: 10 of 10
- survivor count [5]: 10 of 10

SMILES: Cc1ccc(S(=O)(=O)N/N=C/C(Br)=C(/Br)C(=O)O)cc1
- T/C [3]: 148 % of control
- survivor count [4]: 8 of 10

SMILES: C=CCOP(=O)(OCC=C)OCC=C
- survivor count [6]: 5 of 6

SMILES: Cc1c2oc3c(C)ccc(C(=O)NC4C(=O)NC(C(C)C)C(=O)N5CCCC5C(=O)N(C)CC(=O)N(C)C(C(C)C)C(=O)OC4C)c3nc-2c(C(=O)NC2C(=O)NC(C(C)C)C(=O)N3CC(=O)CC3C(=O)N(C)CC(=O)N(C)C(C(C)C)C(=O)OC2C)c(N)c1=O (stereo not drawn) (I: TV[X1][Sar][NMeV] / II: TVP[Sar][NMeV]; ester I:1-I:C, II:1-II:C; linker I:N-II:N via Actinocin(1to9); configuration not given here)
- T/C (dose: 3.1 micrograms/kg/injection, schedule: Q01DX009 (ip), vehicle: water): 126 % of control
- T/C (dose: 12.5 micrograms/kg/injection, schedule: Q01DX009 (ip), vehicle: water): 136 % of control
- survivor count (dose: 25.0 micrograms/kg/injection, schedule: Q01DX009 (ip), vehicle: water): 9 of 9
- T/C (dose: 37.5 micrograms/kg/injection, schedule: Q04DX003 (ip), vehicle: water): 126 % of control
- survivor count (dose: 50.0 micrograms/kg/injection, schedule: Q01DX009 (ip), vehicle: water): 9 of 10
- survivor count (dose: 75.0 micrograms/kg/injection, schedule: Q04DX003 (ip), vehicle: water): 10 of 10
- survivor count (dose: 150.0 micrograms/kg/injection, schedule: Q04DX003 (ip), vehicle: water): 2 of 10
- survivor count (dose: 200.0 micrograms/kg/injection, schedule: Q01DX001 (ip), vehicle: water): 3 of 10
- survivor count (dose: 400.0 micrograms/kg/injection, schedule: Q01DX001 (ip), vehicle: water): 1 of 10

SMILES: Clc1cc(CBr)c(Cl)c(Cl)c1CBr
- survivor count (dose: 6.25 mg/kg/injection, schedule: Q01DX009 (ip), vehicle: Klucel (hydroxypropylcellulose) (HPC)): 10 of 10
- survivor count [6]: 8 of 10
- survivor count [7]: 10 of 10
- survivor count [8]: 0 of 10

SMILES: CC1CCC(=C(c2ccccc2)c2ccccc2)C(C)N1C (stereo not drawn)
- survivor count (dose: 100.0 mg/kg/injection, schedule: Q04DX003 (ip), vehicle: saline with Tween-80): 6 of 10

SMILES: COc1ccc2c(ccc[n+]2C)c1
- survivor count (dose: 50.0 mg/kg/injection, schedule: Q01DX009 (ip), vehicle: saline): 8 of 10
- survivor count (dose: 100.0 mg/kg/injection, schedule: Q04DX003 (ip), vehicle: saline): 0 of 10

SMILES: CN(C)CCC[N+]1([O-])c2ccccc2CCc2ccccc21
- survivor count (dose: 75.0 mg/kg/injection, schedule: Q01DX009 (ip), vehicle: saline): 8 of 10
- survivor count (dose: 150.0 mg/kg/injection, schedule: Q04DX003 (ip), vehicle: saline): 8 of 10
- survivor count (dose: 300.0 mg/kg/injection, schedule: Q04DX003 (ip), vehicle: saline): 0 of 10

SMILES: C=CCN(CC=C)P(=O)(N1CC1C)N1CC1C (stereo not drawn)
- survivor count (dose: 2.5 mg/kg/injection, schedule: Q01DX009 (ip), vehicle: saline): 10 of 10
- survivor count (dose: 5.0 mg/kg/injection, schedule: Q01DX009 (ip), vehicle: saline): 10 of 10
- survivor count (dose: 10.0 mg/kg/injection, schedule: Q01DX009 (ip), vehicle: saline): 8 of 10
- survivor count (dose: 20.0 mg/kg/injection, schedule: Q01DX009 (ip), vehicle: saline): 7 of 10

SMILES: CCC1=C(C[C@H]2NCCc3cc(OC)c(OC)cc32)C[C@H]2c3cc(OC)c(OC)cc3CCN2C1
- T/C (dose: 2.0 mg/kg/injection, schedule: Q01DX005 (ip), vehicle: saline): 125 % of control [9 of 10 alive]
- T/C (dose: 8.0 mg/kg/injection, schedule: Q01DX005 (ip), vehicle: saline): 140 % of control
- T/C (dose: 8.0 mg/kg/injection, schedule: Q01DX009 (ip), vehicle: Klucel (hydroxypropylcellulose) (HPC)): 127 % of control
- T/C (dose: 8.0 mg/kg/injection, schedule: Q01DX009 (ip), vehicle: saline, evaluated on day 45): 125 % of control [9 of 10 alive]
- T/C (dose: 8.0 mg/kg/injection, schedule: Q01DX009 (ip), vehicle: saline, evaluated on day 60): 136 % of control
- T/C (dose: 16.0 mg/kg/injection, schedule: Q01DX005 (ip), vehicle: saline): 146 % of control
- T/C (dose: 16.0 mg/kg/injection, schedule: Q01DX009 (ip), vehicle: Klucel (hydroxypropylcellulose) (HPC)): 141 % of control
- survivor count (dose: 16.0 mg/kg/injection, schedule: Q01DX009 (ip), vehicle: saline): 10 of 10 (2×)
- survivor count (dose: 32.0 mg/kg/injection, schedule: Q01DX005 (ip), vehicle: saline): 4 of 10
- survivor count (dose: 32.0 mg/kg/injection, schedule: Q01DX009 (ip), vehicle: Klucel (hydroxypropylcellulose) (HPC)): 2 of 10
- survivor count (dose: 32.0 mg/kg/injection, schedule: Q01DX009 (ip), vehicle: saline): 0 of 10 and 2 of 10

SMILES: CCCCC(C(=O)OCC)C(CCC1CCCCC1)(C(=O)OCC)C(=O)OCC (stereo not drawn)
- T/C (dose: 12.5 mg/kg/injection, schedule: Q04DX003 (ip), vehicle: Klucel (hydroxypropylcellulose) (HPC)): 136 % of control
- survivor count (dose: 25.0 mg/kg/injection, schedule: Q04DX003 (ip), vehicle: Klucel (hydroxypropylcellulose) (HPC)): 10 of 10
- survivor count (dose: 100.0 mg/kg/injection, schedule: Q04DX003 (ip), vehicle: Klucel (hydroxypropylcellulose) (HPC)): 10 of 10
- survivor count (dose: 200.0 mg/kg/injection, schedule: Q04DX003 (ip), vehicle: Klucel (hydroxypropylcellulose) (HPC)): 10 of 10
- survivor count (dose: 400.0 mg/kg/injection, schedule: Q04DX003 (ip), vehicle: Klucel (hydroxypropylcellulose) (HPC)): 10 of 10

SMILES: O=c1cc(-c2ccccc2)[nH]c(-c2ccccc2)c1
- T/C (dose: 6.25 mg/kg/injection, schedule: Q01DX009 (ip), vehicle: saline with Tween-80): 125 % of control
- survivor count (dose: 12.0 mg/kg/injection, schedule: Q01DX009 (ip), vehicle: saline with Tween-80): 10 of 10
- T/C (dose: 12.5 mg/kg/injection, schedule: Q01DX009 (ip), vehicle: saline with Tween-80): 140 % of control
- T/C (dose: 25.0 mg/kg/injection, schedule: Q01DX009 (ip), vehicle: saline with Tween-80): 128 % of control

SMILES: Cc1ccc(NC(=O)Nc2cccc3ccccc23)c(C)c1
- survivor count [5]: 10 of 10

SMILES: Nc1ncnc2c1ccn2C1OC2COP(=O)(O)OC2C1O (stereo not drawn)
- T/C (dose: 2.0 mg/kg/injection, schedule: Q01DX009 (ip), vehicle: saline): 138 % of control [5 of 6 alive]
- survivor count (dose: 8.0 mg/kg/injection, schedule: Q01DX009 (ip), vehicle: saline): 4 of 6

SMILES: CCCC(=O)NC1CCc2cc(OC)c(OC)c(OC)c2-c2ccc(OC)c(=O)cc21 (stereo not drawn)
- T/C (dose: 0.31 mg/kg/injection, schedule: Q01DX009 (ip), vehicle: Klucel (hydroxypropylcellulose) (HPC)): 126 % of control
- T/C (dose: 0.62 mg/kg/injection, schedule: Q01DX009 (ip), vehicle: Klucel (hydroxypropylcellulose) (HPC)): 127 % of control
- T/C (dose: 1.25 mg/kg/injection, schedule: Q01DX009 (ip), vehicle: Klucel (hydroxypropylcellulose) (HPC)): 134 and 142 % of control
- survivor count (dose: 2.5 mg/kg/injection, schedule: Q01DX009 (ip), vehicle: Klucel (hydroxypropylcellulose) (HPC)): 10 of 10
- survivor count (dose: 5.0 mg/kg/injection, schedule: Q01DX009 (ip), vehicle: Klucel (hydroxypropylcellulose) (HPC)): 6 of 10

SMILES: CCCC(C)(COC(N)=O)COC(=O)NC(C)C (stereo not drawn)
- survivor count [7]: 8 of 10
- survivor count [8]: 7 of 10
- survivor count [3]: 10 of 10
- survivor count [4]: 10 of 10
- survivor count [5]: 10 of 10

SMILES: COC(=O)C1=CO[C@@H](C)[C@@H]2Cn3ccc4c5ccccc5nc-4c3C[C@H]12
- survivor count [1]: 2 of 10
- survivor count [2]: 0 of 10
